The supplement of paper PMC10849652
The list shows a part of the results.

Protein sequences, listed by entry. Tags and fused reporters are not part of them. Lines headed by an entry give the natural chain unless they say otherwise; changes in a name come on top.
UniProt Q9Y3D2: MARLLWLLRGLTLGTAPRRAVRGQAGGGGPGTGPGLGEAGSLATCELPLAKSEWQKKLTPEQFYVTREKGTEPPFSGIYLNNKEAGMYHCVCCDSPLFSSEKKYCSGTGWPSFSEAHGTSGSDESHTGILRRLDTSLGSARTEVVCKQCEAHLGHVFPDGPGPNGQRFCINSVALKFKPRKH
UniProt Q99707: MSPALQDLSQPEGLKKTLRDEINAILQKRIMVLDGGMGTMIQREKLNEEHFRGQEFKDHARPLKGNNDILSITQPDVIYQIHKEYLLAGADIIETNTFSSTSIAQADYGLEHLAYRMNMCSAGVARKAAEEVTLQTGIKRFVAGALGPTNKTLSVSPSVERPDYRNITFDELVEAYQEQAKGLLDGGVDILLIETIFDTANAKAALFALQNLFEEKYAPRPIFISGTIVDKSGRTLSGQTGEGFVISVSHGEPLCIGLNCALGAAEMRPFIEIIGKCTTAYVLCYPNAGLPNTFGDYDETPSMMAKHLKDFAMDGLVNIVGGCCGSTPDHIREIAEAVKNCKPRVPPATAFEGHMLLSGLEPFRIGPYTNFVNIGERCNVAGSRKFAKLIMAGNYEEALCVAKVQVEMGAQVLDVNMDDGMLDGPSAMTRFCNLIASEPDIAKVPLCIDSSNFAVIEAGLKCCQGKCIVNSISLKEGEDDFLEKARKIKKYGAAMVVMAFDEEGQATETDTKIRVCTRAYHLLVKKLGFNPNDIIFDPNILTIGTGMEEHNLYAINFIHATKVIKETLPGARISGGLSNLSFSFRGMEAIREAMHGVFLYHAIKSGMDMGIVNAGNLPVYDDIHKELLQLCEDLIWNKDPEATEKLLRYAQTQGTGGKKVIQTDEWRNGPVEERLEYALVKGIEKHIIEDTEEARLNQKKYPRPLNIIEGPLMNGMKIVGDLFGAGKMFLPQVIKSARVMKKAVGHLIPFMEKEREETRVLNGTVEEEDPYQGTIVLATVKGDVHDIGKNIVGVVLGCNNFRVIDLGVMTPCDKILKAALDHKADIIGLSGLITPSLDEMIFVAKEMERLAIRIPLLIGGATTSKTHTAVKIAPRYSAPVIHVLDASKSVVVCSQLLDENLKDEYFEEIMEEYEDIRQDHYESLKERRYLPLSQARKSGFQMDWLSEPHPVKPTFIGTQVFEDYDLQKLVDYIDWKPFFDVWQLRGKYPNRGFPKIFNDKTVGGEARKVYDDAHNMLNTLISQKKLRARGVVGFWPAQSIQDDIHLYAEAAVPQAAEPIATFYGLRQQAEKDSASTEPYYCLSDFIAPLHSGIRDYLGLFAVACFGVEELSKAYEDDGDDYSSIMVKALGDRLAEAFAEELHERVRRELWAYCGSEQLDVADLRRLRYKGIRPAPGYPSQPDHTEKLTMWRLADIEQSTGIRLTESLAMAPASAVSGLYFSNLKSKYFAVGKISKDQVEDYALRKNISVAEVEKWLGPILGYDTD
UniProt Q6P444: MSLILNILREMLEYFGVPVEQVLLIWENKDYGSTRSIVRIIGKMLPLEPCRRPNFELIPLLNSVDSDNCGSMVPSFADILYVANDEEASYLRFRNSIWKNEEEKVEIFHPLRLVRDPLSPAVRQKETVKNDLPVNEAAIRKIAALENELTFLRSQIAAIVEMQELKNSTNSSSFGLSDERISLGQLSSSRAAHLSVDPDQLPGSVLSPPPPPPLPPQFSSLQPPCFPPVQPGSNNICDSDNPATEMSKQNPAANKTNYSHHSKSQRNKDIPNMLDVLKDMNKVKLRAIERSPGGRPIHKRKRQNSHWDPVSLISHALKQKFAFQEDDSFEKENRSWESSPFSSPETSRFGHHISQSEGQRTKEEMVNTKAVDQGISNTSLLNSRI
UniProt Q96QG7: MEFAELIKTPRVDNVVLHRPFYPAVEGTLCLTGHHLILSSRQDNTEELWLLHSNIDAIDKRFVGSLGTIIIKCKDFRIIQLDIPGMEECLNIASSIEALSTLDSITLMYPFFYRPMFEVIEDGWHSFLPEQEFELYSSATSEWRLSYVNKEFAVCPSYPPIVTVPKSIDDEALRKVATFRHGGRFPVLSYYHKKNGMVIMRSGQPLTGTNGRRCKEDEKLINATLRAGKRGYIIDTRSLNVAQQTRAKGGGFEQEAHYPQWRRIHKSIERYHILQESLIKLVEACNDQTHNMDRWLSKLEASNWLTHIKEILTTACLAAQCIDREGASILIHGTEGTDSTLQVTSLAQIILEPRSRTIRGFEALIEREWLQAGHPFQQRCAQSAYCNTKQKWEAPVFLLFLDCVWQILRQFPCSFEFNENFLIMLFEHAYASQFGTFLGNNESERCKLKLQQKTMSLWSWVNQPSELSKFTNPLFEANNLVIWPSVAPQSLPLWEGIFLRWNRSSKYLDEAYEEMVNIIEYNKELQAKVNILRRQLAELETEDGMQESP
UniProt P03915, whole entry, looked up: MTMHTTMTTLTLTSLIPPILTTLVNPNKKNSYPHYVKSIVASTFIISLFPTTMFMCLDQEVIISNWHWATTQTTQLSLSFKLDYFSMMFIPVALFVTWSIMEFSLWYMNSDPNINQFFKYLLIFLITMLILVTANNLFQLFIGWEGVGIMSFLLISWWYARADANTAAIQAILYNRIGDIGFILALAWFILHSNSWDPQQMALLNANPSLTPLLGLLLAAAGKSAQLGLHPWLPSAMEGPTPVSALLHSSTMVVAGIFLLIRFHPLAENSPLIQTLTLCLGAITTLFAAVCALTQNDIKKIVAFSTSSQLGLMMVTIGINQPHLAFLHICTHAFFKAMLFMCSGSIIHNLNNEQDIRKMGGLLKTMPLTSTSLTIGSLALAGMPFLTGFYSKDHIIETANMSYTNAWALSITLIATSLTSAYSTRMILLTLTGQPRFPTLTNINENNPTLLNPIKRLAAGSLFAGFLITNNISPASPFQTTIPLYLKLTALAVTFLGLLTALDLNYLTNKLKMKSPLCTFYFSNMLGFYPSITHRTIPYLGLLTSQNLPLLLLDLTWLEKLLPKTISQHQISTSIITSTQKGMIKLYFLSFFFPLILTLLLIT
UniProt Q9HD23: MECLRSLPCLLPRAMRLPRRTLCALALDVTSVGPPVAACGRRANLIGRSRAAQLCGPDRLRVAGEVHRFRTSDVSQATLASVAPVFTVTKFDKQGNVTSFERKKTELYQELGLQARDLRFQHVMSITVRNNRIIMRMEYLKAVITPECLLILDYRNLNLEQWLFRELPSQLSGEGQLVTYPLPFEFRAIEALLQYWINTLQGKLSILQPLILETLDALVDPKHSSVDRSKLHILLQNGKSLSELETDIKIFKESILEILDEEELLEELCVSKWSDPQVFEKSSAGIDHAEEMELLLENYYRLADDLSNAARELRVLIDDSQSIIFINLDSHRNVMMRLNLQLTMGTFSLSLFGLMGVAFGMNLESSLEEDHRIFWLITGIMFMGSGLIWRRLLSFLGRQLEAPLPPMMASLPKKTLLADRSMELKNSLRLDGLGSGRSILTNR
UniProt Q9UGC7: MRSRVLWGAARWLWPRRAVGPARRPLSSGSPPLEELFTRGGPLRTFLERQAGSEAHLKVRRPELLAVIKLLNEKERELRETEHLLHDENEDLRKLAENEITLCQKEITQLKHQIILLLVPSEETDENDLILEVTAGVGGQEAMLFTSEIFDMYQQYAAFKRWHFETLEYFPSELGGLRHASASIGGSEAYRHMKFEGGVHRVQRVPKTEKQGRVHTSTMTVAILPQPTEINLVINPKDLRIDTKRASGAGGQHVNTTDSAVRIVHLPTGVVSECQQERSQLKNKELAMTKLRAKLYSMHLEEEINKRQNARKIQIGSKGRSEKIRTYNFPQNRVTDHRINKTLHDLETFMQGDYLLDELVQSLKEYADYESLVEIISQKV
UniProt Q9H019: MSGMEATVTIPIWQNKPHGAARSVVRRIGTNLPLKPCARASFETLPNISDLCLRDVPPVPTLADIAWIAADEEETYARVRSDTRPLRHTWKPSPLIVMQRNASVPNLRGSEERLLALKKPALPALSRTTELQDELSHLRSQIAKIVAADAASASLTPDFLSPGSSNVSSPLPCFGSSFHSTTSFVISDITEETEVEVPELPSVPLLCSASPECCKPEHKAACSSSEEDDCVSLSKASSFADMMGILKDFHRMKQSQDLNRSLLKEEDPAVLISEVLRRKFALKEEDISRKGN
UniProt Q15800: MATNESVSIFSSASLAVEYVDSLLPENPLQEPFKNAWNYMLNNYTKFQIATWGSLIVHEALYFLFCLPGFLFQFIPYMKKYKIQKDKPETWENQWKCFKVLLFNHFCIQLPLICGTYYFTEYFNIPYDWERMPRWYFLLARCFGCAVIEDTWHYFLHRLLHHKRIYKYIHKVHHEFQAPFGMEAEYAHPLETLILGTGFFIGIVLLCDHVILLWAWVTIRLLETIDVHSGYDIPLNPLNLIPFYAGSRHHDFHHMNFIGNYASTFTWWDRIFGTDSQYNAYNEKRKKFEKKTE
UniProt P13640: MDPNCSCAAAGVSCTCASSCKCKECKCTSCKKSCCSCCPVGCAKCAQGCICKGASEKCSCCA
UniProt Q9C0I1: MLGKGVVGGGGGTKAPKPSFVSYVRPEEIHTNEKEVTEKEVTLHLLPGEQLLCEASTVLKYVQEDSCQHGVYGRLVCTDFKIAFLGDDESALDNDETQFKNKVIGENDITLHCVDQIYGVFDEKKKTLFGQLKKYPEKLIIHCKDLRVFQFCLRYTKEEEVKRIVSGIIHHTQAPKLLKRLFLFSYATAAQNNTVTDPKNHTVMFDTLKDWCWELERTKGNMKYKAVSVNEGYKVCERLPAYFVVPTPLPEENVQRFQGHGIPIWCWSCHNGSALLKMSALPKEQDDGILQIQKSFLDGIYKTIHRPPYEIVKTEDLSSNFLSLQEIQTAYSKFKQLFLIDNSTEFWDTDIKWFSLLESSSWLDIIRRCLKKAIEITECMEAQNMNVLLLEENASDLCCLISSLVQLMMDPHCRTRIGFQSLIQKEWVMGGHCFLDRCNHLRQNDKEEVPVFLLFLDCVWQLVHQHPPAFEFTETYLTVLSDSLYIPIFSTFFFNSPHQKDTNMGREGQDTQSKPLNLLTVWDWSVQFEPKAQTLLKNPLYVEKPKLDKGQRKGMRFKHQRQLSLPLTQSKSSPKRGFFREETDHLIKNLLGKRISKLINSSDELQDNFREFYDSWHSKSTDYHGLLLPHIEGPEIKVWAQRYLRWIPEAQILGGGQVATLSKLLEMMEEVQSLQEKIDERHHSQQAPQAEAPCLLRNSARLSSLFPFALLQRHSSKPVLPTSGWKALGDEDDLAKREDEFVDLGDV
UniProt Q96EF0: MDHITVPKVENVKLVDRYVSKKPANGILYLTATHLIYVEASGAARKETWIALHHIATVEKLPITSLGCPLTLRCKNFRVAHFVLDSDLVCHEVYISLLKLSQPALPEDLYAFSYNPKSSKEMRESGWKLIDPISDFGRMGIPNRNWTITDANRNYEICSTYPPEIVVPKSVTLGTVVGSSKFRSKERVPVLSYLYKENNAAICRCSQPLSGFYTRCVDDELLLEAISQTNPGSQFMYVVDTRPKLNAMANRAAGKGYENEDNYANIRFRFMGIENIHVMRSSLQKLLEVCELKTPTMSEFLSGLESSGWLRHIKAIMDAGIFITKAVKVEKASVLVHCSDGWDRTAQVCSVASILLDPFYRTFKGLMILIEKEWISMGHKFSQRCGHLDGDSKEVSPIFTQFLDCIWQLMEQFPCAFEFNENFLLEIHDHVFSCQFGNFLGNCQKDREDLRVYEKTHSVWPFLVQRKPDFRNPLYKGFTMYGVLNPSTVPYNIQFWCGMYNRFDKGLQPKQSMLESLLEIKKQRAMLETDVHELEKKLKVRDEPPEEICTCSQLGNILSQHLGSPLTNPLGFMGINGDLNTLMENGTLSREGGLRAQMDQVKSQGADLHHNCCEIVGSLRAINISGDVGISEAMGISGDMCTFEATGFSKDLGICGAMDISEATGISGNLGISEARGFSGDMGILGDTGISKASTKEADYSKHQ
UniProt P00414, whole entry, looked up: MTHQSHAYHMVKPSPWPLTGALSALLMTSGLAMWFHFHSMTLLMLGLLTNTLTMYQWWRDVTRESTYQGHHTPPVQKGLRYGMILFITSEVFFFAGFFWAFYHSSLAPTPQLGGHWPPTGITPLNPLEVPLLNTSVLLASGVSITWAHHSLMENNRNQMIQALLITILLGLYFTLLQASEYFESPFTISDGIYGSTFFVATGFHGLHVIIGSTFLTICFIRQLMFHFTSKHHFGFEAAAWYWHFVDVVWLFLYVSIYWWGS
UniProt Q2M296: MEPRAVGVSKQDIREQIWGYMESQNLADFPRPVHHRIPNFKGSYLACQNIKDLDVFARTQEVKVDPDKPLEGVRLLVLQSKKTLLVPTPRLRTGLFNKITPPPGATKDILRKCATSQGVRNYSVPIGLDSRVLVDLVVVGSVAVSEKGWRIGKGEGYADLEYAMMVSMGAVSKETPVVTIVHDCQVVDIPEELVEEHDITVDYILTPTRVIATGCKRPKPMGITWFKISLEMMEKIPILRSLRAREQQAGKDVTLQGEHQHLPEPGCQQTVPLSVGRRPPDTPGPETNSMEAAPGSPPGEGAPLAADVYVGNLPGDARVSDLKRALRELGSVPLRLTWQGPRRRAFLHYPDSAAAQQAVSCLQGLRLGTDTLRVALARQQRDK

Assays:
Test in all cases: log2 fold change, soluble protein after heating vs DMSO (PISA); higher = thermal stabilisation; K562 lysate, 10 uM; active = over 0.2 and 3.5 SD of the protein, either way, in both replicates (recomputed)
lapatinib = compound: CS(=O)(=O)CCNCc1ccc(-c2ccc3ncnc(Nc4ccc(OCc5cccc(F)c5)c(Cl)c4)c3c2)o1 [lapatinib]
Procedure, shortened: (§1)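 The values are log-two fold changes in thermal stability compared with solvent controls and come from duplicates. They were obtained by TMTpro 16plex LC-MS/MS, with channel sums equalised, on the supernatant after 21,000xg for 90 min. That supernatant came from crude K562 extract at 1 mg/mL protein treated with 10 μM compound for 30 min, heated for 3 min across 48°C-58°C, pooled and brought to 0.5% NP-40 at 4°C.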

pictilisib = compound: CS(=O)(=O)N1CCN(Cc2cc3nc(-c4cccc5[nH]ncc45)nc(N4CCOCC4)c3s2)CC1 [pictilisib]
Procedure, shortened: as §1

crizotinib = compound: C[C@@H](Oc1cc(-c2cnn(C3CCNCC3)c2)cnc1N)c1c(Cl)ccc(F)c1Cl [crizotinib]
Procedure, shortened: as §1

[1] = compound: C[C@H](C1=CC=C(C=C1)C(=O)NC2=C3C=CNC3=NC=C2)N
Procedure, shortened: as §1

duvelisib = compound: C[C@H](Nc1ncnc2nc[nH]c12)c1cc2cccc(Cl)c2c(=O)n1-c1ccccc1 [duvelisib]
Procedure, shortened: as §1

gandotinib = compound: Cc1cc(Nc2cc(CN3CCOCC3)c3nc(C)c(Cc4ccc(Cl)cc4F)n3n2)n[nH]1 [gandotinib]
Procedure, shortened: as §1

tozasertib = compound: Cc1cc(Nc2cc(N3CCN(C)CC3)nc(Sc3ccc(NC(=O)C4CC4)cc3)n2)n[nH]1 [tozasertib]
Procedure, shortened: as §1

doramapimod = compound: Cc1ccc(-n2nc(C(C)(C)C)cc2NC(=O)Nc2ccc(OCCN3CCOCC3)c3ccccc23)cc1 [doramapimod]
Procedure, shortened: as §1

bafetinib = compound: Cc1ccc(NC(=O)c2ccc(CN3CC[C@H](N(C)C)C3)c(C(F)(F)F)c2)cc1Nc1nccc(-c2cncnc2)n1 [bafetinib]
Procedure, shortened: as §1

[2] = compound: Cc1cccc(CC(=O)N2CCc3c2ccc(-c2cn(C)c4ncnc(N)c24)c3F)n1
Procedure, shortened: as §1

Measured: log2 fold change

MSRB2 (UniProt Q9Y3D2)
inactive: lapatinib -0.029 | pictilisib -0.028 | crizotinib 0.013 | [1] 0.027 | duvelisib -0.057 | gandotinib 0.053 | tozasertib 0.078 | doramapimod 0.022 | bafetinib 0.029 | [2] -0.021

MSTO1 (UniProt Q9BUK6)
inactive: lapatinib -0.042 | pictilisib -0.005 | crizotinib -0.044 | [1] 0.047 | duvelisib 0.037 | gandotinib -0.091 | tozasertib 0.014 | doramapimod -0.032 | bafetinib -0.038 | [2] -0.052

MRPS21 (UniProt P82921)
inactive: lapatinib -0.104 | pictilisib 0.267 | crizotinib -0.086 | [1] 0.038 | duvelisib 0 | gandotinib -0.08 | tozasertib 0.129 | doramapimod -0.123 | bafetinib 0.064 | [2] 0.006

MTR (UniProt Q99707)
inactive: lapatinib 0.042 | pictilisib -0.017 | crizotinib -0.018 | [1] -0.062 | duvelisib 0.012 | gandotinib -0.009 | tozasertib -0.016 | doramapimod -0.004 | bafetinib -0.053 | [2] 0.039

MRPS23 (UniProt Q9Y3D9)
inactive: lapatinib 0.005 | pictilisib -0.051 | crizotinib -0.003 | [1] 0.093 | duvelisib -0.028 | gandotinib -0.113 | tozasertib 0.015 | doramapimod 0.044 | bafetinib -0.059 | [2] -0.112

MRPS6 (UniProt P82932)
inactive: lapatinib 0.003 | pictilisib -0.007 | crizotinib -0.052 | [1] -0.011 | duvelisib 0.088 | gandotinib 0.006 | tozasertib 0.063 | doramapimod 0.065 | bafetinib -0.049 | [2] -0.011

MTFR2 (UniProt Q6P444)
inactive: lapatinib -0.016 | pictilisib 0.019 | crizotinib -0.051 | [1] -0.029 | duvelisib -0.022 | gandotinib -0.323 | tozasertib -0.095 | doramapimod 0.015 | bafetinib -0.075 | [2] 0.146

MRPS18B (UniProt Q9Y676)
inactive: lapatinib -0.033 | pictilisib 0.017 | crizotinib -0.026 | [1] -0.019 | duvelisib 0.003 | gandotinib 0.031 | tozasertib 0.037 | doramapimod 0.039 | bafetinib -0.091 | [2] 0.008

MTMR9 (UniProt Q96QG7)
inactive: lapatinib -0.071 | pictilisib -0.055 | crizotinib -0.002 | [1] -0.063 | duvelisib -0.042 | gandotinib 0.066 | tozasertib 0.095 | doramapimod 0.132 | bafetinib -0.114 | [2] -0.045

MT-ND5 (UniProt P03915)
inactive: lapatinib -0.018 | pictilisib 0.227 | crizotinib -0.045 | [1] 0.058 | duvelisib -0.055 | gandotinib -0.082 | tozasertib -0.057 | doramapimod -0.044 | bafetinib 0.051 | [2] 0.048

MRPS24 (UniProt Q96EL2)
inactive: lapatinib 0.002 | pictilisib -0.037 | crizotinib 0.035 | [1] -0.076 | duvelisib -0.011 | gandotinib -0.177 | tozasertib 0.175 | doramapimod 0.123 | bafetinib 0.048 | [2] -0.076

MTOR (UniProt P42345)
inactive: lapatinib -0.008 | pictilisib -0.016 | crizotinib -0.068 | [1] -0.042 | duvelisib 0.021 | gandotinib -0.079 | tozasertib 0.018 | doramapimod 0.055 | bafetinib -0.015 | [2] 0.053

MRS2 (UniProt Q9HD23)
inactive: lapatinib -0.014 | pictilisib -0.01 | crizotinib 0.041 | [1] 0.012 | duvelisib -0.013 | gandotinib -0.042 | tozasertib 0.002 | doramapimod -0.001 | bafetinib 0.059 | [2] 0.012

MTRF1L (UniProt Q9UGC7)
inactive: lapatinib 0.026 | pictilisib -0.012 | crizotinib -0.013 | [1] -0.052 | duvelisib -0.037 | gandotinib 0.014 | tozasertib -0.054 | doramapimod 0.043 | bafetinib -0.016 | [2] 0.069

MRPS28 (UniProt Q9Y2Q9)
inactive: lapatinib 0.054 | pictilisib 0.028 | crizotinib 0.075 | [1] 0.07 | duvelisib 0.022 | gandotinib -0.06 | tozasertib 0.023 | doramapimod -0.059 | bafetinib -0.001 | [2] -0.064

MTFR1L (UniProt Q9H019)
inactive: lapatinib 0.072 | pictilisib 0.021 | crizotinib -0.026 | [1] -0.026 | duvelisib -0.016 | gandotinib 0.023 | tozasertib -0.045 | doramapimod 0.023 | bafetinib -0.077 | [2] 0.017

MRPS12 (UniProt O15235)
inactive: lapatinib 0.006 | pictilisib -0.024 | crizotinib -0.019 | [1] 0.003 | duvelisib -0.022 | gandotinib -0.022 | tozasertib 0.048 | doramapimod 0.03 | bafetinib 0.036 | [2] -0.003

MRPL44 (UniProt Q9H9J2)
inactive: lapatinib -0.001 | pictilisib -0.03 | crizotinib -0.03 | [1] 0.011 | duvelisib 0.003 | gandotinib -0.033 | tozasertib 0.005 | doramapimod 0.008 | bafetinib -0.105 | [2] 0.016

MRPS34 (UniProt P82930)
inactive: lapatinib 0.027 | pictilisib 0.023 | crizotinib 0.043 | [1] 0.06 | duvelisib -0.035 | gandotinib -0.048 | tozasertib 0.022 | doramapimod 0.046 | bafetinib 0.094 | [2] 0.01

MRPL49 (UniProt Q13405)
inactive: lapatinib 0.033 | pictilisib 0.045 | crizotinib 0.043 | [1] 0.06 | duvelisib 0.003 | gandotinib -0.057 | tozasertib 0.071 | doramapimod -0.015 | bafetinib -0.032 | [2] 0.033

MSMO1 (UniProt Q15800)
inactive: lapatinib 0.009 | pictilisib -0.017 | crizotinib -0.043 | [1] -0.041 | duvelisib 0.006 | gandotinib 0.065 | tozasertib -0.05 | doramapimod -0.008 | bafetinib -0.015 | [2] 0.097

MRPL55 isoform 2 (UniProt Q7Z7F7)
inactive: lapatinib 0.01 | pictilisib -0.049 | crizotinib -0.02 | [1] -0.165 | duvelisib 0.035 | gandotinib 0.103 | tozasertib -0.102 | doramapimod -0.013 | bafetinib -0.097 | [2] 0.149

MRPS16 (UniProt Q9Y3D3)
inactive: lapatinib -0.054 | pictilisib -0.022 | crizotinib -0.014 | [1] 0.129 | duvelisib -0.094 | gandotinib -0.066 | tozasertib 0.02 | doramapimod -0.018 | bafetinib -0.034 | [2] -0.02

MRPL4 (UniProt Q9BYD3)
inactive: lapatinib 0.039 | pictilisib -0.007 | crizotinib -0.025 | [1] 0.145 | duvelisib 0.059 | gandotinib -0.107 | tozasertib -0.006 | doramapimod -0.01 | bafetinib 0.013 | [2] -0.134

MT1G (UniProt P13640)
inactive: lapatinib 0.07 | pictilisib 0.019 | crizotinib 0.053 | [1] -0.037 | duvelisib 0.067 | gandotinib 0.016 | tozasertib 0.104 | doramapimod 0.086 | bafetinib 0.063 | [2] 0.043

MTMR12 (UniProt Q9C0I1)
inactive: lapatinib 0.017 | pictilisib -0.016 | crizotinib 0.029 | [1] -0.017 | duvelisib -0.007 | gandotinib 0.057 | tozasertib -0.001 | doramapimod 0.037 | bafetinib -0.029 | [2] 0.011

MRPL40 (UniProt Q9NQ50)
inactive: lapatinib -0.003 | pictilisib 0.093 | crizotinib -0.013 | [1] 0.031 | duvelisib 0.002 | gandotinib -0.06 | tozasertib -0.045 | doramapimod -0.023 | bafetinib 0.015 | [2] -0.026

MRPS35 (UniProt P82673)
inactive: lapatinib -0.002 | pictilisib -0.003 | crizotinib -0.044 | [1] 0.033 | duvelisib 0.005 | gandotinib 0.002 | tozasertib 0.01 | doramapimod 0.055 | bafetinib 0.001 | [2] 0.008

MTMR8 (UniProt Q96EF0)
inactive: pictilisib 0.123 | duvelisib 0.089 | bafetinib -0.2

MRPS2 (UniProt Q9Y399)
inactive: lapatinib 0.013 | crizotinib 0.022 | [1] 0.096 | duvelisib 0.015 | gandotinib -0.036 | tozasertib 0.097 | doramapimod 0.037 | [2] -0.017

MT-CO3 (UniProt P00414)
inactive: [1] -0.368 | duvelisib -0.13 | gandotinib 0.141 | [2] 0.187

MTHFSD (UniProt Q2M296)
inactive: lapatinib 0.016 | pictilisib -0.037 | crizotinib -0.052 | duvelisib -0.062 | tozasertib 0.014 | doramapimod 0.014 | bafetinib 0.003

MTHFD2L (UniProt Q9H903)
inactive: pictilisib -0.174 | crizotinib -0.183 | [1] -0.097 | gandotinib 0.099 | doramapimod -0.103 | bafetinib -0.182 | [2] -0.117
